Structures can show the parent of a compound that is named as a salt. Some of the results follow. Most values lie at the level of the controls, where differences are scatter.
How the values were obtained:
Conditions in all cases: 5 µM; treatment: days 7-14 after plating, readout day 21
[1] = tested on: hPSC-derived cortical neurons (WA09); assay: nucleus area z-score vs screen plate; higher = larger nuclei (more mature)
[2] = tested on: hPSC-derived cortical neurons (WA09); assay: total neurite length per nucleus (MAP2) z-score; higher = more neurite growth
[3] = tested on: hPSC-derived cortical neurons (WA09); assay: nucleus roundness z-score vs screen plate; higher = rounder nuclei (more mature)
[4] = tested on: hPSC-derived cortical neurons (WA09); assay: KCl-induced FOS+/EGR-1+ double-positive nuclei fraction z-score (KCl minus unstimulated); higher = stronger activity-induced IEG response

SMILES | nucleus area z-score [1] | total neurite length per nucleus (z-score) [2] | nucleus roundness z-score [3] | KCl-induced FOS+/EGR-1+ double-positive nuclei fraction z-score [4]
CCNC(=O)C#Cc1ccc2c(C(=Nc3ccc(CN(C)C)cc3)c3ccccc3)c(O)[nH]c2c1 | -13.7 | -4.73 | -2.96 | -0.924
CO[C@H]1/C=C/O[C@@]2(C)Oc3c(C)c(O)c4c(O)c(c(/C=N/N5CCN(C6CCCC6)CC5)c(O)c4c3C2=O)NC(=O)/C(C)=C\C=C\[C@H](C)[C@H](O)[C@@H](C)[C@@H](O)[C@@H](C)[C@H](OC(C)=O)[C@@H]1C [Rifapentine] | 1.17 | -0.269 | -0.00659 | 0.237
O=C(NCCCNc1nc(Nc2cccc(NC(=O)N3CCCC3)c2)ncc1I)c1cccs1 | 0.693 | 0.129 | -0.357 | -0.197
O=NN(CCCl)C(=O)NC1CCCCC1 [Lomustine] | -1.49 | 0.977 | 1.39 | -0.898
CC1(C)S[C@@H]2[C@H](NC(=O)[C@H](N)c3ccccc3)C(=O)N2[C@H]1C(=O)O [Ampicillin Trihydrate] | -1.42 | -1.29 | -3.47 | 1.29
CC(C)c1nc(N(C)S(C)(=O)=O)nc(-c2ccc(F)cc2)c1/C=C/[C@@H](O)C[C@@H](O)CC(=O)O [Rosuvastatin Calcium] | -3.07 | -2.18 | -1.63 | -0.991
CC(C)c1cc(-c2ccc(F)c3ccccc23)nc(N)n1 | 0.365 | 1.33 | 0.74 | -0.0141
O=C(CCCCCN1C(=O)c2cccc3cccc(c23)C1=O)NO [Scriptaid] | -5.18 | -1.32 | -3.88 | 0.312
NC1=NCC2c3ccccc3Cc3ccccc3N12 (stereo unspecified) [Epinastine HCl] | 0.706 | 0.306 | 0.774 | 0.0384

Two successive compounds out of the list so far, quoted:
SMILES | nucleus area z-score [1] | total neurite length per nucleus (z-score) [2] | nucleus roundness z-score [3] | KCl-induced FOS+/EGR-1+ double-positive nuclei fraction z-score [4]
CC(C)c1cc(-c2ccc(F)c3ccccc23)nc(N)n1 | 0.365 | 1.33 | 0.74 | -0.0141
O=C(CCCCCN1C(=O)c2cccc3cccc(c23)C1=O)NO [Scriptaid] | -5.18 | -1.32 | -3.88 | 0.312
